# Measured values: PubChem BioAssay (NCATS)
# Inconclusive results, whose numbers are uncertain, are shown with a selection of clear calls. Potencies beside an inconclusive call are fits to weak or partial responses and may not hold up. Activity calls are given as the source filed them. Unless noted, the call rests on the fitted dose curve; in most records, active means well fitted curve in the direction sought with a large enough effect; inconclusive means small, poorly fitted or top-dose-only effect, or another doubt; inactive means no such curve, though single readings can be large; an effect the other way counts as inactive or inconclusive.
# Legend:
# [1] = Quantitative High-Throughput drug screen in 47 multiple myeloma cell lines against the NCATS MIPE library collection: UTMC2_PLB cell viability assay (AID 1919868); settings: CellTiter-Glo ATP luminescence, 48 h; viability (% of DMSO control): at 45.8 µM (top of the series); further: nearly all actives have a fitted effect of over 55% in size
# Procedure, shortened: (§1)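 Viability after 48 h drug exposure was measured as ATP-dependent luminescence. Cells, 500 per well, sat at 37 °C under 5% CO2; DMSO wells set 100%, media-only wells 0%.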
# [2] = Quantitative High-Throughput drug screen in 47 multiple myeloma cell lines against the NCATS MIPE library collection: PCM6_Riken cell viability assay (AID 1919870); further: nearly all actives have a fitted effect of over 30% in size
# Procedure, shortened: as §1
# [3] = Quantitative High-Throughput drug screen in 47 multiple myeloma cell lines against the NCATS MIPE library collection: RPMI8226_ATCC cell viability assay (AID 1919871); settings: RPMI8226 myeloma viability, CellTiter-Glo ATP luminescence, 48 h; viability (% of control): at 45.8 µM (top of the series); further: nearly all actives have a fitted effect of over 30% in size
# Procedure, shortened: as §1
# [4] = Quantitative High-Throughput drug screen in 47 multiple myeloma cell lines against the NCATS MIPE library collection: OPM2_DSMZ cell viability assay (AID 1919872); further: nearly all actives have a fitted effect of over 30% in size
# Procedure, shortened: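 CellTiter-Glo luminescence (ATP) after 48 h compound exposure, 37C/5% CO2; 500 cells/well; MIPE 4.0 approved/investigational drugs pinned in; DMSO = 100%, media only = 0% viability.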
# [5] = qHTS for identification of novel therapeutic agents for treatment of microphthalmiaassociated transcription factor (MiT) renal cell carcinoma (RCC) (AID 1963991; calls by dose curve); settings: TFE3-RCC UOK109 viability, CellTiter-Glo, 48 h; active = Z-AUC below -0.8 in all three lines
# Procedure, shortened: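 Three TFE3-fusion RCC lines (UOK109, UOK124, UOK145), 500 cells/well in complete medium, were treated with MIPE 4.0 compounds for 48 hours at 37 C. Viability was by CellTiter-Glo luminescence, normalized to DMSO (100%) and empty wells (0%); curves fitted over 11 concentrations.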
# [6] = Quantitative High-Throughput drug screen in 47 multiple myeloma cell lines against the NCATS MIPE library collection: KMS11_JCRBsus cell viability assay (AID 1919873); further: nearly all actives have a fitted effect of over 50% in size
# Procedure, shortened: as §1
# 7G8 = experiment: qHTS profiling for inhibitors of Plasmodium falciparum proliferation (AID 504749); further: nearly all actives have a fitted effect of over 60% in size; settings: P. falciparum in erythrocytes, SYBR Green DNA, 72 h; series mostly up to 28.7 µM
# Procedure, shortened: (§2)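 Readout was DNA-dye fluorescence from lysed cultures, ex 485/em 535 nm. Parasitized red cells had grown 72 h with compound; data scaled between 0.29 uM artemisinin and DMSO wells and corrected using vehicle-only plates.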
# [7] = Quantitative High-Throughput drug screen in 47 multiple myeloma cell lines against the NCATS MIPE library collection: KMS28BM_JCRB cell viability assay (AID 1919874); settings: CellTiter-Glo ATP, 48 h; viability, % of control: at 45.8 µM (top of the series); further: nearly all actives have a fitted effect of over 35% in size
# Procedure, shortened: as §1
# 3D7 = experiment: qHTS profiling for inhibitors of Plasmodium falciparum proliferation (AID 504749); further: nearly all actives have a fitted effect of over 60% in size; settings: P. falciparum in erythrocytes, SYBR Green DNA, 72 h; series mostly up to 28.7 µM
# Procedure, shortened: as §2
# Potency means the concentration at half of the fitted maximal effect.
smiles,measurement,setting,value
C=C1C(=CC=C2CCCC3(C)[C@@H]([C@H](C)C=CC=CC(O)(CC)CC)CC[C@@H]23)C[C@@H](O)C[C@@H]1O (stereo not given in full),Potency,[1],"inconclusive: 18.7 µM [cytotoxic, partial curve, poor fit]"
same,Potency,[2],active: 33.2 µM
same,Potency,[3],active: 26.4 µM
same,Potency,[4],"inconclusive: 37.2 µM [cytotoxic, single point]"
same,Potency,[5],"inconclusive: 18.7 µM [falling, partial curve]"
Clc1cccc(Cl)c1NC1=NCCN1,Potency,[1],"inconclusive: 0.0743 µM [rising, full curve, poor fit]"
same,Potency,[2],inactive
same,Potency,[3],"inconclusive: 0.0148 µM [rising, full curve, poor fit]"
same,Potency,[6],"inconclusive: 0.003 µM [rising, full curve, poor fit]"
same,Potency,7G8,"inconclusive: 17.8 µM [inhibitor, single point]"
Cn1cnc(=N)c2[nH]cnc21,Potency,[1],active: 0.0935 µM
same,Potency,[2],active: 0.235 µM
same,Potency,[3],active: 0.264 µM
same,Potency,[4],active: 0.235 µM
same,Potency,[7],active: 0.0469 µM
same,Potency,[5],"inconclusive: 4.69 µM [falling, partial curve]"
CCCS(=O)(=O)Nc1ccc(F)c(C(=O)c2c[nH]c3ncc(-c4ccc(Cl)cc4)cc23)c1F,Potency,[1],active: 14.8 µM
same,Potency,[3],"inconclusive: 37.2 µM [cytotoxic, single point]"
same,Potency,[4],"inconclusive: 23.5 µM [cytotoxic, partial curve]"
same,Potency,[7],"inconclusive: 11.8 µM [cytotoxic, single point]"
same,Potency,[5],"inconclusive: 16.6 µM [falling, partial curve]"
COc1ccc2c(c1)c(CC(=O)O)c(C)n2C(=O)c1ccc(Cl)cc1,Potency,[1],"inconclusive: 4.69 µM [cytotoxic, partial curve, poor fit]"
same,Potency,[2],"inconclusive: 4.69 µM [cytotoxic, full curve, poor fit]"
same,Potency,[7],inactive
same,Potency,[5],"inconclusive: 26.4 µM [falling, single point]"
c1cc(N[C@@H]2CCNC2)nc(-c2cnc3ccc(-c4cn[nH]c4)cn23)c1,Potency,[1],active: 4.69 µM
same,Potency,[3],inactive
same,Potency,[4],"inconclusive: 23.5 µM [cytotoxic, single point]"
same,Potency,[6],"inconclusive: 26.4 µM [cytotoxic, single point]"
same,Potency,[5],"inconclusive: 9.35 µM [falling, partial curve]"
CC1=CC(=O)c2ccccc2C1=O,Potency,[1],"inconclusive: 5.9 µM [cytotoxic, full curve, poor fit]"
same,Potency,[2],active: 18.7 µM
same,Potency,[3],"inconclusive: 33.2 µM [cytotoxic, single point]"
same,Potency,[4],active: 20.9 µM
same,Potency,[7],"inconclusive: 33.2 µM [cytotoxic, single point]"
same,Potency,[5],"inconclusive: 37.2 µM [falling, single point]"
same,Potency,3D7,active: 7.08 µM
N=C(N)c1ccc2cc(OC(=O)c3ccc(N=C(N)N)cc3)ccc2c1,Potency,[1],"inconclusive: 13.2 µM [cytotoxic, partial curve, poor fit]"
same,Potency,[3],"inconclusive: 20.9 µM [cytotoxic, single point]"
same,Potency,[4],active: 10.5 µM
same,Potency,3D7,"inconclusive: 10 µM [inhibitor, single point]"
COc1ccc2c(c1OC)C(=O)OC2[C@H]1c2c(cc3c(c2OC)OCO3)CCN1C (stereo not given in full),Potency,[1],active: 0.132 µM
same,Potency,[2],active: 0.469 µM
same,Potency,[5],"inconclusive: 0.469 µM [falling, full curve]"
same,Potency,7G8,inactive
CC=CC1=C(C(=O)O)N2C(=O)[C@H](NC(=O)[C@H](N)c3ccc(O)cc3)[C@@H]2SC1,Potency,[1],"inconclusive: 37.2 µM [cytotoxic, single point]"
same,Potency,[2],inactive
same,Potency,[6],inactive
same,Potency,[7],inactive
same,Potency,[5],"inconclusive: 33.2 µM [falling, single point]"
O=C1CCC[C@@H]2[C@H]3CCC[N+]4([O-])CCC[C@@H](CN12)[C@@H]34 (stereo not given in full),Potency,[1],"inconclusive: 0.0833 µM [rising, full curve, poor fit]"
same,Potency,[2],inactive
same,Potency,[3],"inconclusive: 0.0053 µM [rising, full curve, poor fit]"
same,Potency,[6],"inconclusive: 0.0148 µM [rising, full curve, poor fit]"
same,Potency,[7],"inconclusive: 4.18 µM [rising, partial curve, poor fit]"
COc1ccc2nc(S(=O)Cc3ncc(C)c(OC)c3C)[nH]c2c1 (stereo not given),viability (% of DMSO control),[1],active: 120%
same,Potency,[2],active: 20.9 µM
same,Potency,[3],inactive
same,Potency,[4],"inconclusive: 0.418 µM [rising, full curve, poor fit]"
same,Potency,[6],inactive
same,Potency,[7],"inconclusive: 37.2 µM [cytotoxic, single point]"
same,Potency,[5],"inconclusive: 23.5 µM [falling, single point]"
Cc1cc(Nc2nc(N[C@@H](C)c3ccc(F)cc3)c(C#N)cc2F)n[nH]1,Potency,[1],active: 0.935 µM
same,Potency,[3],active: 11.8 µM
same,Potency,[7],"inconclusive: 37.2 µM [cytotoxic, single point]"
same,Potency,[5],"inconclusive: 2.96 µM [falling, full curve]"
COC(=O)Nc1nc2ccc(C(=O)c3ccccc3)cc2[nH]1,Potency,[1],active: 2.35 µM
same,Potency,[3],"inconclusive: 1.87 µM [cytotoxic, full curve]"
same,Potency,[7],"inconclusive: 0.332 µM [cytotoxic, full curve]"
same,Potency,[5],"inconclusive: 1.66 µM [falling, full curve]"
FC(F)c1nc2ccccc2n1-c1nc(N2CCOCC2)nc(N2CCOCC2)n1,Potency,[1],active: 0.118 µM
same,Potency,[2],"inconclusive: 1.05 µM [cytotoxic, full curve]"
same,Potency,[6],"inconclusive: 0.105 µM [cytotoxic, full curve]"
same,Potency,[5],"inconclusive: 0.0332 µM [falling, full curve]"
CNc1nccc(-c2cccnc2Oc2cc(C(=O)Nc3cccc(C(F)(F)F)c3)ccc2C)n1,Potency,[1],active: 14.8 µM
same,Potency,[3],"inconclusive: 23.5 µM [cytotoxic, partial curve]"
same,Potency,[4],"inconclusive: 16.6 µM [cytotoxic, partial curve]"
same,Potency,[5],"inconclusive: 16.6 µM [falling, partial curve]"
CCOC(=O)[C@H](CCc1ccccc1)N[C@H]1CCc2ccccc2N(CC(=O)O)C1=O,Potency,[1],active: 29.6 µM
same,Potency,[3],active: 18.7 µM
same,Potency,[4],"inconclusive: 29.6 µM [cytotoxic, single point]"
same,Potency,[6],active: 8.33 µM
same,Potency,[5],"inconclusive: 20.9 µM [falling, partial curve]"
Cn1cc(-c2[nH]c3cc(NC(=O)[C@H](N)C4CCCCC4)cc4c3c2C=NNC4=O)cn1,Potency,[1],active: 0.0743 µM
same,Potency,[3],"inconclusive: 18.7 µM [cytotoxic, partial curve]"
same,Potency,[4],active: 7.43 µM
same,Potency,[6],active: 2.64 µM
same,Potency,[7],active: 1.32 µM
same,Potency,[5],"inconclusive: 2.96 µM [falling, full curve]"
O=c1[nH]nc(OCCCc2ccc(Cl)cc2)c(NCc2cccnc2)c1Br,Potency,[1],"inconclusive: 14.8 µM [cytotoxic, partial curve, poor fit]"
same,Potency,[3],active: 20.9 µM
same,Potency,[4],active: 23.5 µM
same,Potency,[7],active: 20.9 µM
same,Potency,[5],"inconclusive: 20.9 µM [falling, partial curve]"
CCN(CC)CCOc1ccc(Nc2ncc3cc(-c4c(Cl)cccc4Cl)c(=O)n(C)c3n2)cc1,Potency,[1],active: 0.132 µM
same,Potency,[2],active: 0.935 µM
same,Potency,[3],active: 2.35 µM
same,Potency,[4],active: 1.18 µM
same,Potency,[7],active: 0.526 µM
same,Potency,[5],active: 0.0118 µM
CCN(CC)CCCCNc1nc2cc(Cl)c(Cl)cc2nc1-c1ccc(-c2cccs2)s1,Potency,[1],active: 9.35 µM
same,Potency,[3],active: 10.5 µM
same,Potency,[7],active: 7.43 µM
same,Potency,[5],"inconclusive: 18.7 µM [falling, partial curve]"
C[C@H](CCC(=O)O)[C@H]1CC[C@H]2[C@H]3[C@@H](CC[C@]12C)[C@@]1(C)CC[C@@H](O)C[C@H]1C[C@@H]3O,Potency,[1],inactive
same,Potency,[2],"inconclusive: 29.6 µM [cytotoxic, single point]"
same,Potency,[3],"inconclusive: 1.05 µM [cytotoxic, partial curve, poor fit]"
same,Potency,[4],active: 6.62 µM
same,Potency,[5],inconclusive: 0.469 µM
Cn1cc(-c2ccncc2)c(-c2ccc(OCc3ccc4ccccc4n3)cc2)n1,Potency,[1],"inconclusive: 5.26 µM [cytotoxic, partial curve, poor fit]"
same,Potency,[2],"inconclusive: 6.62 µM [cytotoxic, partial curve]"
same,Potency,[4],"inconclusive: 13.2 µM [cytotoxic, partial curve, poor fit]"
same,Potency,[5],"inconclusive: 8.33 µM [falling, partial curve, poor fit]"
CN(CC(=O)N(Cc1ccc(C2CCCCC2)cc1)c1ccc(C(=O)O)c(O)c1)S(=O)(=O)c1c(F)c(F)c(F)c(F)c1F,viability (% of DMSO control),[1],active: 77%
same,Potency,[6],"inconclusive: 0.526 µM [cytotoxic, full curve, poor fit]"
same,Potency,[7],"inconclusive: 0.833 µM [cytotoxic, full curve, poor fit]"
same,Potency,[5],"inconclusive: 33.2 µM [falling, single point]"
CC[C@H](CC#N)OC(=O)N[C@@H](C)c1cccc(NC(=O)Nc2ccc(-c3cnco3)c(OC)c2)c1,Potency,[1],active: 1.18 µM
same,Potency,[4],"inconclusive: 16.6 µM [cytotoxic, partial curve]"
same,Potency,[5],"inconclusive: 1.05 µM [falling, full curve]"

# Rewritten tab-delimited: entries from further up
smiles	measurement	setting	value
CNc1nccc(-c2cccnc2Oc2cc(C(=O)Nc3cccc(C(F)(F)F)c3)ccc2C)n1	Potency	[5]	inconclusive: 16.6 µM [falling, partial curve]
CCOC(=O)[C@H](CCc1ccccc1)N[C@H]1CCc2ccccc2N(CC(=O)O)C1=O	Potency	[1]	active: 29.6 µM
same	Potency	[3]	active: 18.7 µM
